Data as given in PubChem BioAssay (NCATS).
This is one part of the list. These are further read-outs of the screen, such as a control signal, another cell line or another target. No call is given for them. Most of these compounds were active or inconclusive in the main read-out, so they are no random draw. Potencies come from curve fits of mixed quality, noted in brackets.

Experiment: NCATS anti-infectives library activity on the primary C. elegans qHTS viability assay (AID 1745855)
Conditions: C. elegans worm area imaging, day 7, measured here: worm number
How it was run: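 Viability is taken from GFP fluorescence of PE254-GFP-FLuc C. elegans imaged by laser cytometry over 7 days. Ten L1 worms per well grow at 21 °C on TOP10 E. coli capsules with titrated compound; levamisole marks toxicity.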

| SMILES | AC50 |
| --- | --- |
| CC(C)CN(C[C@@H](OP(=O)(O)O)[C@H](Cc1ccccc1)NC(=O)O[C@@H]1CCOC1)S(=O)(=O)c1ccc(N)cc1 | 0.29 µM [falling, partial curve, poor fit] |
| COC[C@H]1C[C@@H](c2ncc(-c3ccc4c(c3)COc3cc5c(ccc6[nH]c([C@@H]7CC[C@H](C)N7C(=O)[C@@H](NC(=O)OC)C(C)C)nc65)cc3-4)[nH]2)N(C(=O)[C@H](NC(=O)OC)c2ccccc2)C1 | 23 µM [falling, single point] |
| c1ccc([C@H]2CN3CCSC3=N2)cc1 | 1.83 µM [falling, partial curve, poor fit] |
| O=C(O)/C(S)=C/c1c[nH]c2ccc(F)cc12 | 23 µM [falling, single point] |
| CC(C)=CCC/C(C)=C/CC/C(C)=C/CC/C(C)=C/CC/C(C)=C/CC/C(C)=C/CC/C(C)=C/CC/C(C)=C/CC/C(C)=C/CO | 0.0792 µM [falling, full curve, poor fit] |
| Cc1cn([C@H]2O[C@@H](CO)[C@H](O)[C@H]2F)c(=O)[nH]c1=O | 8.16 µM [falling, partial curve, poor fit] |
| OC[C@H]1O[C@@H](Oc2c(O)cc(O)cc2/C=C/c2ccc(O)cc2)[C@H](O)[C@@H](O)[C@@H]1O | 2.3 µM [falling, partial curve, poor fit] |
| Cc1ccc(-c2ccc3c(c2)C=C(C(=O)Nc2ccc(C[N+](C)(C)C4CCOCC4)cc2)CCC3)cc1 | 18.3 µM [falling, partial curve, poor fit] |
| Cc1cc(/C=C/C#N)cc(C)c1Nc1ccnc(Nc2ccc(C#N)cc2)n1 | 14.5 µM [falling, partial curve, poor fit] |
| C=CC(=O)N1C/C(=C\c2ccc([N+](=O)[O-])cc2)C(=O)/C(=C/c2ccc([N+](=O)[O-])cc2)C1 | 8.16 µM [falling, partial curve, poor fit] |
| C[C@H](Cn1cnc2c(N)ncnc21)OCP(=O)(O)O | 1.45 µM [falling, partial curve, poor fit] |
| CC(C)c1cnn2c(NCc3ccccc3-n3cccn3)nc(OC3CCCNC3)nc12 (stereo not given) | 8.16 µM [falling, partial curve, poor fit] |

Same assay, conditions: C. elegans worm area imaging, day 7; measured here: worm area, day 3

| SMILES | AC50 |
| --- | --- |
| c1ccc(CNCc2ccc(CN3CCCNCCNCCCNCC3)cc2)nc1 | 20.5 µM [rising, single point] |
| Nc1nccs1 | 1.12 µM [falling, partial curve, poor fit] |
| CC[C@@H](CO)NCCN[C@@H](CC)CO | 18.3 µM [falling, partial curve, poor fit] |
| CC(C)CCNC(=O)[C@H](CC(C)C)NC(=O)[C@H]1O[C@@H]1C(=O)O | 9.16 µM [falling, partial curve, poor fit] |
| C=C1CCC2C(C)(CO)C(O)CCC2(C)C1C/C=C1\C=COC1=O (stereo not given) | 29 µM [rising, single point] |
| O=c1[nH]cnc2ccccc12 | 29 µM [rising, single point] |
| CCCC(CCC)C(N)=O | 1.41 µM [falling, partial curve, poor fit] |
| Cc1cc(C)cc(C(=O)NOCCCCCC(=O)NO)c1 | 0.0727 µM [falling, full curve, poor fit] |
| OCc1ccc(Cl)cc1Cl | 25.8 µM [rising, single point] |
| Cc1ccc(N)cc1C(=O)N[C@H](C)c1cccc2ccccc12 | 11.2 µM [falling, partial curve, poor fit] |
| CCN[C@H]1CN(CCCOC)S(=O)(=O)c2sc(S(N)(=O)=O)cc21 | 0.515 µM [falling, full curve, poor fit] |
| O=C(Cc1ccccc1)Nc1nnc(CCSCCc2nnc(NC(=O)Cc3ccccc3)s2)s1 | 10.3 µM [rising, single point] |

Shown with each value named: part of the list above.
OCc1ccc(Cl)cc1Cl
  AC50: 25.8 µM [rising, single point]
Cc1ccc(N)cc1C(=O)N[C@H](C)c1cccc2ccccc12
  AC50: 11.2 µM [falling, partial curve, poor fit]

Same assay, conditions: C. elegans worm area imaging, day 7; measured here: worm number, day 3

| SMILES | AC50 |
| --- | --- |
| CC(=O)c1cc([N+](=O)[O-])c(Sc2ccc(F)cc2F)s1 | 0.205 µM [falling, partial curve, poor fit] |
| Cc1cc(OCCN2CCOCC2)nn1-c1ccc2ccccc2c1 | 4.09 µM [falling, partial curve, poor fit] |
| CCCCCCCCCCCCCCCCOCCCOP(=O)(O)CO[C@H](CO)Cn1ccc(N)nc1=O | 3.73 µM [falling, partial curve, poor fit] |
| CC(O)(P(=O)(O)O)P(=O)(O)O | 5.92 µM [rising, single point] |
| O=c1cc(CO)occ1O | 0.0891 µM [falling, full curve, poor fit] |
| O=C(OC1OC2COC(=O)c3cc(O)c(O)c(O)c3-c3c(cc(O)c(O)c3O)C(=O)OC(C2O)C1O)c1cc(O)c(O)c(O)c1 (stereo not given) | 29 µM [rising, single point] |
| O=C(O)P(=O)(O)O | 40.9 µM [rising, single point] |
| COc1ccc(/C=C/C(=O)O)cc1O | 3.33 µM [rising, full curve, poor fit] |
| CCO[C@@H]1OC(=O)C[C@@H]1NC(=O)[C@@H]1CCCN1C(=O)[C@@H](NC(=O)c1ccc(N)c(Cl)c1)C(C)(C)C | 5.15 µM [rising, partial curve, poor fit] |
| Cc1nnc(C(C)C)n1C1CC2CCC(C1)N2CC[C@H](NC(=O)C1CCC(F)(F)CC1)c1ccccc1 (stereo not given in full) | 0.728 µM [falling, partial curve, poor fit] |
| CC1(C)CC[C@]2(C(=O)O)CC[C@]3(C)C(=CC[C@@H]4[C@@]5(C)C[C@@H](O)[C@H](O)C(C)(C)[C@@H]5CC[C@]43C)[C@@H]2C1 | 6.48 µM [falling, partial curve, poor fit] |
| CCCCc1ccc(O)cc1O | 1.03 µM [falling, full curve, poor fit] |
| O=C(O)[C@H]1O[C@@H](Oc2cc3oc(-c4ccc(O)cc4)cc(=O)c3c(O)c2O)[C@H](O)[C@@H](O)[C@@H]1O | 0.365 µM [falling, single point] |
| COc1ccc(C(=O)C2CCN(CC(=O)N(Cc3nc4c(c(=O)[nH]3)COCC4)CC3CC3)CC2)cc1 | 7.27 µM [falling, partial curve, poor fit] |
| Cc1cc(CCCOc2c(C)cc(-c3noc(C(F)(F)F)n3)cc2C)on1 | 1.03 µM [falling, full curve, poor fit] |
| COc1cc2c(c(OC)c1OC)-c1c(cc(OC)c(OC)c1OC)CC(C)C(C)C2 (stereo not given) | 1.63 µM [falling, partial curve, poor fit] |
